Our source for the binding values is PMC9271913.

The chains behind the UniProt entries cited, without tags or fusion partners. Residues count along the entry.
UniProt Q8CFI0: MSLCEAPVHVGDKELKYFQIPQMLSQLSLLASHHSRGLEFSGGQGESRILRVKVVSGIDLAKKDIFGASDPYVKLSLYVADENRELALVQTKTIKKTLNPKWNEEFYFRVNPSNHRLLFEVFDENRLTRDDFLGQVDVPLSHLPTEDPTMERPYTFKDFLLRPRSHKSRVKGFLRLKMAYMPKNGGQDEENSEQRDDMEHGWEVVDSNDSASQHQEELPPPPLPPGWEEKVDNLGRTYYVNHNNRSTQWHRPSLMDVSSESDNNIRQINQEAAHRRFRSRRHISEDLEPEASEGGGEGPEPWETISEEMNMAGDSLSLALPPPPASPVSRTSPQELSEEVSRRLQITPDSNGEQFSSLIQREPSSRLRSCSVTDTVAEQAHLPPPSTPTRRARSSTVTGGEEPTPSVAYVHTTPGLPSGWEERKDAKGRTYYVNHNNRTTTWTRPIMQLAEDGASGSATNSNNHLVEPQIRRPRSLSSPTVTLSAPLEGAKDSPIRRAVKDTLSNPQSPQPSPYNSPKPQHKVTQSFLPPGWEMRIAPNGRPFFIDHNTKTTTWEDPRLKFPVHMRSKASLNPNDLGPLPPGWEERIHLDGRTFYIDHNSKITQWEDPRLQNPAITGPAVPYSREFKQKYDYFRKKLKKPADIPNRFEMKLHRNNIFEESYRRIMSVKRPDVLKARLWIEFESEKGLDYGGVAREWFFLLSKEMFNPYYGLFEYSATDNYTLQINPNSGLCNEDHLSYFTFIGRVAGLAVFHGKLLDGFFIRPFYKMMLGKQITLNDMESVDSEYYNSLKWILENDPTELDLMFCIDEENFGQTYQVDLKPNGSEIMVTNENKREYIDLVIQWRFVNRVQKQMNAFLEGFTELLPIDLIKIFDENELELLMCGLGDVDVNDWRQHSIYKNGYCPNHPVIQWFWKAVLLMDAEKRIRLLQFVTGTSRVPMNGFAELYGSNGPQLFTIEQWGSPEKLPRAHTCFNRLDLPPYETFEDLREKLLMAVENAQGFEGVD
UniProt P62812, residues 28-455: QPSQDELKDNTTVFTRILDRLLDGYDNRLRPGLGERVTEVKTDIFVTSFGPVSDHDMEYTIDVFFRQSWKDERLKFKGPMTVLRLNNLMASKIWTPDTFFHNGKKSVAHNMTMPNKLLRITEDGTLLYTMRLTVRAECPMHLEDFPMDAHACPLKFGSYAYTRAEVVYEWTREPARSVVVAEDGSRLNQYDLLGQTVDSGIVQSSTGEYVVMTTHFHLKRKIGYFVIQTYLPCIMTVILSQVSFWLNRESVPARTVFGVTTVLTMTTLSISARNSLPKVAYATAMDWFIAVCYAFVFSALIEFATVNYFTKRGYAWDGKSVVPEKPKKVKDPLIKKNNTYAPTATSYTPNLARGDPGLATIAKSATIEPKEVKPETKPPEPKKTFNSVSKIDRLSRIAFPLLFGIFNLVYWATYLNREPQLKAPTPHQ

Common to all, as to assay: co-IP; endogenous proteins in brain lysates (gentle RIPA lysis buffer) of Nedd4-2+/- and wild-type mice, with or without PTZ or Tg (2 mg/kg, 6 h); 3 ug anti-NEDD4-2, anti-RER1 or anti-GABRA1 on Protein A/G magnetic beads, 4°C overnight; immunoblot
Assay [1] concerns the target T1, Retention in endoplasmic reticulum 1 (Rer1), mouse (mouse (endogenous in brain)) (UniProt Q9CQU3).
T1 sequence: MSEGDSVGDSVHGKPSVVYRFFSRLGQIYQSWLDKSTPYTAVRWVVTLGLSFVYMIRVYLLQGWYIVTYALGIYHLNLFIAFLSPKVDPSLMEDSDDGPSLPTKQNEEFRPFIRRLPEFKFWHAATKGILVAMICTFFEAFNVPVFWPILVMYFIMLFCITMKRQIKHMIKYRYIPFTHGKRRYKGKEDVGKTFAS

In assay [2] the target is Neural precursor cell expressed developmentally downregulated gene 4-2 (Nedd4-2), mouse (mouse (endogenous in brain)) (UniProt Q8CFI0).
For assay [3], the target named is Gamma-aminobutyric acid receptor subunit alpha-1 (mouse (endogenous in brain)) (UniProt P62812).

Results are given in words; binding and its absence hold for the method and conditions named. In cells and extracts the contact can be indirect. Some binding calls cover weakened binding; strength is not graded here.

With “Neural precursor cell expressed developmentally downregulated gene 4-2 (Nedd4-2), mouse (from UniProt Q8CFI0 1-1004)”, in assay [1], the binding entry was “binds”.

B1: Retention in endoplasmic reticulum 1 (Rer1), mouse (protein, UniProt Q9CQU3 1-196)
chain: MSEGDSVGDSVHGKPSVVYRFFSRLGQIYQSWLDKSTPYTAVRWVVTLGLSFVYMIRVYLLQGWYIVTYALGIYHLNLFIAFLSPKVDPSLMEDSDDGPSLPTKQNEEFRPFIRRLPEFKFWHAATKGILVAMICTFFEAFNVPVFWPILVMYFIMLFCITMKRQIKHMIKYRYIPFTHGKRRYKGKEDVGKTFAS
On to B1, for which the binding entry in assay [2] and in assay [3] was “binds” throughout.
